For the test, the target named is Kelch-like ECH-associated protein 1 (mouse (endogenous in primary SLCs)) (UniProt Q9Z2X8). Description: co-IP; lysates of primary SLCs from young and aged mice; LP2 lysis buffer (20 mM Tris-HCl pH 7.7, 100 mM NaCl, 10 mM NaF, 20 mM β-glycerophosphate, 5 mM MgCl2, 0.1% Triton X-100, 5% glycerol) with benzonase; antibody-carrying beads 4–12 h at 4 °C; Western blot; precipitating antibody not stated in the ….

The chains behind the UniProt entries cited, without tags or fusion partners.
UniProt Q9Z2X8: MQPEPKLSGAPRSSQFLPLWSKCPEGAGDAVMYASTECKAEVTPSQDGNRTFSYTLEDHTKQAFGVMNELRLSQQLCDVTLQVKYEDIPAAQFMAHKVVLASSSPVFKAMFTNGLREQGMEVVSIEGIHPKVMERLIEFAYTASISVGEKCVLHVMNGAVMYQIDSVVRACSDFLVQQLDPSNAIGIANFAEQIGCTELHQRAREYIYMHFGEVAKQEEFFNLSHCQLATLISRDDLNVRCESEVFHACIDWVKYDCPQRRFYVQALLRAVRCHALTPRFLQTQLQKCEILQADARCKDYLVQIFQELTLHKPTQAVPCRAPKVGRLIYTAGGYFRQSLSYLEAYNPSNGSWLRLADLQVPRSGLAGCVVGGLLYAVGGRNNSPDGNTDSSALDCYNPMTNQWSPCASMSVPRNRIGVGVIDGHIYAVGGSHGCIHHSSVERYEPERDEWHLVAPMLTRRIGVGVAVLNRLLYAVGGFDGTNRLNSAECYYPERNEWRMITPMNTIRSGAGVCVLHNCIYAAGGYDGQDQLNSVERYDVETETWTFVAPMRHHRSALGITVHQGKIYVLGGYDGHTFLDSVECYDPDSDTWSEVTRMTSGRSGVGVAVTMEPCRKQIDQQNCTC
UniProt Q6P5H2: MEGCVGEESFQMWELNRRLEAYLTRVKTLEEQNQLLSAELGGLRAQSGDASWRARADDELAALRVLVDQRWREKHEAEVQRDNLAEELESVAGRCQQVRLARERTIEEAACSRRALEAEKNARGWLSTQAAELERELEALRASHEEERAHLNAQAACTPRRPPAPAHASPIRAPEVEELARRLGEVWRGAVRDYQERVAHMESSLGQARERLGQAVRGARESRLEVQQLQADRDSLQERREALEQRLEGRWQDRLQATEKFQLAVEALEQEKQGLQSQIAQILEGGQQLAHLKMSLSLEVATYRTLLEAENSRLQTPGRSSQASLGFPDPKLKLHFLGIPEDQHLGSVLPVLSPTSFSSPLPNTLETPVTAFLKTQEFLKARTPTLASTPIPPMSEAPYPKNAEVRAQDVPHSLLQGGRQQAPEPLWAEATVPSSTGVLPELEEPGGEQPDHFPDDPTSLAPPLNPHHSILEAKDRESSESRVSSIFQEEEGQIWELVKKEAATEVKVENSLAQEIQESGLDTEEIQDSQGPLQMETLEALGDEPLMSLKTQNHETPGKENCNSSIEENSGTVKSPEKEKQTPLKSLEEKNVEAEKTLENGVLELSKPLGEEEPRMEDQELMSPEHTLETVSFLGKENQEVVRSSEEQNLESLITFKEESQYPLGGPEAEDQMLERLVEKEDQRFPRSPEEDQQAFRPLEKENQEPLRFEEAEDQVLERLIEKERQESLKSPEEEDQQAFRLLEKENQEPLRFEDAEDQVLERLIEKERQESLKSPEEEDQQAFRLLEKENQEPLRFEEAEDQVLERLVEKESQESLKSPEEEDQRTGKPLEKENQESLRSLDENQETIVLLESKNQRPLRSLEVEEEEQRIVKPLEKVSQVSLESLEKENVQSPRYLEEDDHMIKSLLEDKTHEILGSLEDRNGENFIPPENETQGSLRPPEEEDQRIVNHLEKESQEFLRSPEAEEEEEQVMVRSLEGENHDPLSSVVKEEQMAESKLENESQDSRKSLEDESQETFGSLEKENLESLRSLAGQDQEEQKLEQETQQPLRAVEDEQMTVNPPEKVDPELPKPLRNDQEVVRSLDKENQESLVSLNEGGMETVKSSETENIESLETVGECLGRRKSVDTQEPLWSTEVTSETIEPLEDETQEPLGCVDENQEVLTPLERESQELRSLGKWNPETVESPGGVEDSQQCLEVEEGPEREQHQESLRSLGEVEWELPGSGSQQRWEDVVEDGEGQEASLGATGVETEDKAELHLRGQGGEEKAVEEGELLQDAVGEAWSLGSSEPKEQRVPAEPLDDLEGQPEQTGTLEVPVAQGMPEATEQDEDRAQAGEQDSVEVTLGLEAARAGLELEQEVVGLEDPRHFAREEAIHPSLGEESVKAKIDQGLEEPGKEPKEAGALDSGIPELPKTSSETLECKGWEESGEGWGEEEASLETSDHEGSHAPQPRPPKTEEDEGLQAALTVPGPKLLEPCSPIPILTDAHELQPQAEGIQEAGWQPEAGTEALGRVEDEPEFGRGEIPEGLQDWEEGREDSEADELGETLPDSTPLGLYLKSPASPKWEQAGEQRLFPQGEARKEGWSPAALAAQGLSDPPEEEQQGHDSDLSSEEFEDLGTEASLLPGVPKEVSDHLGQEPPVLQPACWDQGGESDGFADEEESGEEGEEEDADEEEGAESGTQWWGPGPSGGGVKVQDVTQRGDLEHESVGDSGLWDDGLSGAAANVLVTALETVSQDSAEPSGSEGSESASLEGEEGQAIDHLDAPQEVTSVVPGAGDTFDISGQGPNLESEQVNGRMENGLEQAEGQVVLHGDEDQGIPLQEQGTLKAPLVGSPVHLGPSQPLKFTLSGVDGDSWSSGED

Results are given in words; binding and its absence hold for the method and conditions named. Binding seen in cells or lysates may run through a third protein. Some results given as binding are weak or reduced against the parent protein; the word gives no strength.

Consider Nestin (from UniProt Q6P5H2 1-1864), for which the binding entry is given as “binds”.
